In PubChem BioAssay AID274 (DTP/NCI, 2004):
The list is a part of this screen's results and no random one: it is rich in T/C values a quarter to a half above the control, in often repeated tests (any T/C) and in doses without a T/C. Further doses and runs are listed elsewhere. T/C is the treated group as % of the vehicle group. Some entries give survivors of the animals treated and no T/C: the source holds a T/C of zero for them, seemingly a mark for toxic or unscored doses. Some doses without a T/C left all or most animals alive at the check, yet need not have been tolerated: survival well below the control is almost never listed, so the zero probably covers shortened survival too. Counts of survivors are from the toxicity check (mostly the fifth day) where no day follows; animals may have died later. Schedule codes are those of the source, taken here to give the interval after Q, in days (D) or hours (H), and the number of doses after X. Signs of the kind (2×) stand for listed records that agree. Some entries hold several experiments; the values are given in rising order. For survival time, the PubChem record calls one and a half times the control and up active, and a quarter to a half above the control has no call in these data; cut-offs in other NCI protocols can differ. Some T/C values carry the count of animals alive at the toxicity check (mostly the fifth day); without a count, all were alive then.

Tested on: BDF1 mice, Lewis lung carcinoma iv, survival T/C
Assay: NCI In Vivo Anticancer Drug Screen. Data for tumor model Lewis Lung Carcinoma (intravenous) in B6D2F1 (BDF1) mice
Conditions: higher T/C = longer survival
Experimental: The antitumor activity of compounds was measured in mice bearing transplantable tumors. Survival or tumor size were measured and the results are expressed as the measurement made in the treated group (T) divided by the measurement made in the vehicle treated control group (C). The tumor model used in this assay is Lewis Lung Carcinoma (intravenous) in B6D2F1 (BDF1) mice

[1] = T/C endpoint: median survival time, dose: 25.0 mg/kg/injection, schedule: Q01DX009 (ip), vehicle: saline with Tween-80
[2] = T/C endpoint: median survival time, dose: 50.0 mg/kg/injection, schedule: Q01DX009 (ip), vehicle: saline with Tween-80
[3] = T/C endpoint: median survival time, dose: 100.0 mg/kg/injection, schedule: Q01DX009 (ip), vehicle: saline with Tween-80
[4] = T/C endpoint: median survival time, dose: 100.0 mg/kg/injection, schedule: Q01DX009 (ip), vehicle: saline
[5] = T/C endpoint: median survival time, dose: 200.0 mg/kg/injection, schedule: Q01DX009 (ip), vehicle: saline
[6] = T/C endpoint: median survival time, dose: 50.0 mg/kg/injection, schedule: Q01DX009 (ip), vehicle: saline
[7] = T/C endpoint: median survival time, dose: 400.0 mg/kg/injection, schedule: Q01DX009 (ip), vehicle: saline
[8] = T/C endpoint: median survival time, dose: 200.0 mg/kg/injection, schedule: Q01DX009 (ip), vehicle: Klucel (hydroxypropylcellulose) (HPC)
[9] = T/C endpoint: median survival time, dose: 400.0 mg/kg/injection, schedule: Q01DX009 (ip), vehicle: Klucel (hydroxypropylcellulose) (HPC)
[10] = T/C endpoint: median survival time, dose: 120.0 mg/kg/injection, schedule: Q04DX003 (ip), vehicle: saline

SMILES: C=C1C(=O)C2=CC1CCC(=O)C1(C)CCC(OC(C)=O)C(C)(C)C1CC2O (stereo not drawn)
- survivor count (T/C endpoint: median survival time, dose: 120.0 mg/kg/injection, schedule: Q01DX009 (ip), vehicle: Klucel (hydroxypropylcellulose) (HPC)): 0 of 10

SMILES: Nc1cc2[nH]cnc2c(=O)[nH]1
- survivor count (T/C endpoint: mean survival time, dose: 170.0 mg/kg/injection, schedule: Q01DX009 (ip), vehicle: Klucel (hydroxypropylcellulose) (HPC)): 10 of 10

SMILES: Nc1ccn(C2OC(COC(=O)C34CC5CC(CC(C5)C3)C4)C(O)C2O)c(=O)n1 (stereo not drawn)
- T/C [1]: 130 % of control
- survivor count [2]: 10 of 10
- survivor count [3]: 9 of 10

SMILES: O=c1cc(CCl)[nH]nc1CCl
- survivor count [1]: 10 of 10
- survivor count [2]: 3 of 10
- survivor count [3]: 0 of 10

SMILES: CC(=O)OCC1OC(n2ccc(N)nc2=O)C(OC(C)=O)C1OC(C)=O (stereo not drawn)
- T/C [4]: 144 % of control
- survivor count [5]: 10 of 10

SMILES: COC1OC(CO)C(O)C(NC(=O)N(C)N=O)C1O (stereo not drawn)
- T/C [6]: 128 and 133 % of control
- T/C [4]: 138 % of control
- T/C [5]: 142 % of control
- survivor count [7]: 10 of 10 (2×)

SMILES: CC(C)C(N)C(=O)Nc1nncs1 (stereo not drawn)
- survivor count [7]: 8 of 10

SMILES: Nc1ccccc1N
- survivor count [8]: 9 of 10
- survivor count [9]: 0 of 10

SMILES: CN(C)CC(Cl)CCl (stereo not drawn)
- survivor count [6]: 10 of 10
- survivor count [4]: 10 of 10
- survivor count [5]: 7 of 7
- survivor count [7]: 0 of 10

SMILES: NC(=O)c1[nH]nc(C2OC(CO)C(O)C2O)c1O (stereo not drawn)
- survivor count (T/C endpoint: median survival time, dose: 1250.0 micrograms/kg/injection, schedule: Q01DX009 (ip), vehicle: water): 10 of 10

SMILES: CC12C(=O)C=CCC1=CCC1C2CCC2(O)C(=O)OC3(C)C4CC5(C)C(COC16OC23C5C6=O)C(=O)O4 (stereo not drawn)
- survivor count [8]: 10 of 10
- survivor count [9]: 2 of 10

SMILES: c1ccc(CN2CCOC2)cc1
- survivor count [5]: 5 of 10
- survivor count [7]: 0 of 10

SMILES: O=c1[nH]cc(F)c(=O)[nH]1
- T/C (T/C endpoint: median survival time, dose: 5.0 mg/kg/injection, schedule: Q01DX009 (ip), vehicle: saline): 130 % of control
- T/C (T/C endpoint: median survival time, dose: 6.9 mg/kg/injection, schedule: Q01DX022 (ip), vehicle: saline): 139 % of control
- T/C (T/C endpoint: median survival time, dose: 9.8 mg/kg/injection, schedule: Q01DX009 (ip), vehicle: saline): 140 % of control
- T/C (T/C endpoint: median survival time, dose: 9.8 mg/kg/injection, schedule: Q01DX022 (ip), vehicle: saline): 140 % of control
- T/C (T/C endpoint: median survival time, dose: 14.0 mg/kg/injection, schedule: Q01DX009 (ip), vehicle: saline): 126 % of control [7 of 8 alive]
- T/C (T/C endpoint: median survival time, dose: 20.0 mg/kg/injection, schedule: Q01DX009 (ip), vehicle: saline, evaluated on day 60): 113, 123, 127 % of control
- T/C (T/C endpoint: median survival time, dose: 20.0 mg/kg/injection, schedule: Q01DX009 (ip), vehicle: saline, evaluated on day 90): 135 [7 of 8 alive] and 186 % of control
- survivor count (T/C endpoint: median survival time, dose: 20.0 mg/kg/injection, schedule: Q01DX022 (ip), vehicle: saline): 8 of 8
- T/C (T/C endpoint: median survival time, dose: 20.0 mg/kg/injection, schedule: Q04DX003 (ip), vehicle: saline, evaluated on day 60): 100 [7 of 8 alive] and 102 % of control (2×)
- T/C (T/C endpoint: median survival time, dose: 20.0 mg/kg/injection, schedule: Q04DX003 (ip), vehicle: saline, evaluated on day 90): 107 [7 of 8 alive] and 117 % of control
- T/C (T/C endpoint: median survival time, dose: 20.0 mg/kg/injection, schedule: Q04DX006 (ip), vehicle: saline): 135 % of control
- survivor count (T/C endpoint: median survival time, dose: 28.6 mg/kg/injection, schedule: Q01DX009 (ip), vehicle: saline): 8 of 8
- survivor count (T/C endpoint: median survival time, dose: 28.6 mg/kg/injection, schedule: Q01DX022 (ip), vehicle: saline): 8 of 8
- T/C (T/C endpoint: median survival time, dose: 30.0 mg/kg/injection, schedule: Q04DX003 (ip), vehicle: saline, evaluated on day 60): 100, 105, 105 [7 of 8 alive], 115, 115 % of control [7 of 8 alive] (2×)
- T/C (T/C endpoint: median survival time, dose: 30.0 mg/kg/injection, schedule: Q04DX003 (ip), vehicle: saline, evaluated on day 90): 109 [7 of 8 alive] and 139 % of control
- T/C (T/C endpoint: median survival time, dose: 30.0 mg/kg/injection, schedule: Q04DX006 (ip), vehicle: saline): 140 % of control
- survivor count (T/C endpoint: median survival time, dose: 40.0 mg/kg/injection, schedule: Q01DX009 (ip), vehicle: saline): 10 of 10
- survivor count (T/C endpoint: median survival time, dose: 40.9 mg/kg/injection, schedule: Q01DX009 (ip), vehicle: saline): 8 of 8
- T/C (T/C endpoint: median survival time, dose: 44.0 mg/kg/injection, schedule: Q04DX003 (ip), vehicle: saline, evaluated on day 60): 114 and 114 % of control [7 of 8 alive]
- T/C (T/C endpoint: median survival time, dose: 44.0 mg/kg/injection, schedule: Q04DX003 (ip), vehicle: saline, evaluated on day 90): 114 [7 of 8 alive] and 206 % of control
- survivor count (T/C endpoint: median survival time, dose: 44.0 mg/kg/injection, schedule: Q04DX003 (ip), vehicle: saline): 8 of 8
- T/C (T/C endpoint: median survival time, dose: 44.0 mg/kg/injection, schedule: Q04DX006 (ip), vehicle: saline): 145 % of control
- survivor count (T/C endpoint: median survival time, dose: 60.0 mg/kg/injection, schedule: Q04DX003 (ip), vehicle: saline): 5 of 8 and 6 of 8
- T/C (T/C endpoint: median survival time, dose: 67.0 mg/kg/injection, schedule: Q04DX003 (ip), vehicle: saline, evaluated on day 60): 100 and 122 % of control (2×)
- T/C (T/C endpoint: median survival time, dose: 67.0 mg/kg/injection, schedule: Q04DX003 (ip), vehicle: saline, evaluated on day 90): 136 % of control [6 of 8 alive]
- survivor count (T/C endpoint: median survival time, dose: 67.0 mg/kg/injection, schedule: Q04DX003 (ip), vehicle: saline): 8 of 8
- survivor count (T/C endpoint: median survival time, dose: 67.0 mg/kg/injection, schedule: Q04DX006 (ip), vehicle: saline): 8 of 8
- survivor count (T/C endpoint: median survival time, dose: 80.0 mg/kg/injection, schedule: Q01DX009 (ip), vehicle: saline): 10 of 10
- T/C (T/C endpoint: median survival time, dose: 100.0 mg/kg/injection, schedule: Q04DX003 (ip), vehicle: saline, evaluated on day 60): 122 % of control (2×)
- T/C (T/C endpoint: median survival time, dose: 100.0 mg/kg/injection, schedule: Q04DX003 (ip), vehicle: saline, evaluated on day 90): 125 % of control [7 of 8 alive]
- survivor count (T/C endpoint: median survival time, dose: 100.0 mg/kg/injection, schedule: Q04DX003 (ip), vehicle: saline): 8 of 8 (2×)
- survivor count (T/C endpoint: median survival time, dose: 100.0 mg/kg/injection, schedule: Q04DX006 (ip), vehicle: saline): 8 of 8
- T/C [10]: 131 and 131 % of control [7 of 8 alive]
- survivor count [10]: 7 of 8

SMILES: CCN(CC)CCOC(=O)Cc1cccc2c(=O)cc(-c3ccccc3)oc12
- survivor count [5]: 7 of 10
- survivor count [7]: 0 of 10

SMILES: CCCCCCCCCCCCN1C(C)=CS/C1=C\C=C\c1scc(C)[n+]1CCCCCCCCCCCC
- survivor count (T/C endpoint: median survival time, dose: 6.25 mg/kg/injection, schedule: Q01DX009 (ip), vehicle: saline with Tween-80): 10 of 10
- survivor count (T/C endpoint: median survival time, dose: 12.5 mg/kg/injection, schedule: Q01DX009 (ip), vehicle: saline with Tween-80): 10 of 10
- survivor count [1]: 2 of 10

SMILES: COC1/C=C\C=C(/C)C(=O)NC2=CC(=O)C=C(C2=O)C(OC)C(C)CC(OC)C(OC)C(C)/C=C(/C)C1OC(N)=O (stereo not drawn)
- survivor count (T/C endpoint: median survival time, dose: 3.0 mg/kg/injection, schedule: Q01DX009 (ip), vehicle: Klucel (hydroxypropylcellulose) (HPC)): 10 of 10
- survivor count (T/C endpoint: median survival time, dose: 6.0 mg/kg/injection, schedule: Q01DX009 (ip), vehicle: Klucel (hydroxypropylcellulose) (HPC)): 1 of 10

SMILES: CN1C(=O)NC(c2ccc(Cl)cc2)(c2ccc(Cl)cc2)C1=O
- T/C (T/C endpoint: median survival time, dose: 100.0 mg/kg/injection, schedule: Q01DX009 (ip), vehicle: distilled water + Tween-80): 129 % of control
- survivor count (T/C endpoint: median survival time, dose: 400.0 mg/kg/injection, schedule: Q01DX009 (ip), vehicle: distilled water + Tween-80): 0 of 10

SMILES: CC(=O)OCC1OC(n2cc(CBr)nn2)C(OC(C)=O)C(OC(C)=O)C1OC(C)=O (stereo not drawn)
- survivor count (T/C endpoint: median survival time, dose: 100.0 mg/kg/injection, schedule: Q01DX009 (ip), vehicle: Klucel (hydroxypropylcellulose) (HPC)): 6 of 9

SMILES: Cc1cc(/C=C/c2cc[n+](C)c3ccccc23)c(O)c2ncccc12
- survivor count [1]: 10 of 10

SMILES: CC1(C)CC23C4COC(=O)C2CCC1C3CC4=O (stereo not drawn)
- T/C (T/C endpoint: median survival time, dose: 3.0 mg/kg/injection, schedule: Q01DX009 (ip), vehicle: DMSO): 133 % of control
- T/C (T/C endpoint: median survival time, dose: 96.0 mg/kg/injection, schedule: Q01DX009 (ip), vehicle: DMSO): 147 % of control
